The other results are listed elsewhere or left out.
What was measured:
Test in all cases: NMR binding call after quantification (hit when 2 of 3 NMR criteria are met) (binary (1 = binding, 0 = not binding)); higher = binding
Conditions in all cases: RNA concentration 10 µM; fragment concentration 200 µM; 293 K
SARS-CoV-2 5'-UTR RNA = test system: SARS-CoV-2 5'-UTR RNA
SARS-CoV-2 5_SL1 RNA = test system: SARS-CoV-2 5_SL1 RNA
SARS-CoV-2 5_SL1234 RNA = test system: SARS-CoV-2 5_SL1234 RNA
SARS-CoV-2 5_SL2+3 RNA = test system: SARS-CoV-2 5_SL2+3 RNA
SARS-CoV-2 5_SL4 RNA = test system: SARS-CoV-2 5_SL4 RNA
SARS-CoV-2 5_SL5 RNA = test system: SARS-CoV-2 5_SL5 RNA
SARS-CoV-2 5_SL5a RNA = test system: SARS-CoV-2 5_SL5a RNA
SARS-CoV-2 5_SL5b+c RNA = test system: SARS-CoV-2 5_SL5b+c RNA
SARS-CoV-2 5_SL5stem RNA = test system: SARS-CoV-2 5_SL5stem RNA
SARS-CoV-2 5_SL6 RNA = test system: SARS-CoV-2 5_SL6 RNA

Measured: NMR binding call

N#Cc1ccc(CNCc2ccc(F)cc2)cc1
0: all assays above

CN(C)Cc1nc(C2(N)CCCC2)no1
not listed: SARS-CoV-2 5_SL5 RNA
0: all other assays above

Oc1ccc(CN2CCCC2)c2cccnc12
1: SARS-CoV-2 5'-UTR RNA
not listed: SARS-CoV-2 5_SL5 RNA
0: all other assays above

O=C(NO)c1ccc2ccccc2n1
1: SARS-CoV-2 5'-UTR RNA | SARS-CoV-2 5_SL5stem RNA
not listed: SARS-CoV-2 5_SL5 RNA | SARS-CoV-2 5_SL6 RNA
0: all other assays above

Cc1cc(C(=O)Nc2ccc3[nH]ccc3c2)no1
not listed: SARS-CoV-2 5_SL4 RNA
0: all other assays above

COc1ccc(CN2CCOCC2)cc1OC
not listed: SARS-CoV-2 5_SL5b+c RNA
0: all other assays above

Cl.Cl.O=C(c1ccncc1)N1CCNCC1
not listed: SARS-CoV-2 5_SL5 RNA
0: all other assays above

CC(=O)Nc1ccc2[nH]c(=O)[nH]c2c1
not listed: SARS-CoV-2 5_SL5 RNA
0: all other assays above

CS(=O)(=O)Nc1ccc(CN)cc1.Cl
not listed: SARS-CoV-2 5_SL5 RNA
0: all other assays above

CC(C)(C)NC(=O)Cn1ccc(C(F)(F)F)n1
0: all assays above

COC(=O)C1CCN(CC(N)=O)CC1
not listed: SARS-CoV-2 5_SL5stem RNA
0: all other assays above

Cc1ccc(NC(=O)C2CCCO2)nc1 (stereo unspecified)
not listed: SARS-CoV-2 5_SL5b+c RNA
0: all other assays above

OCc1ccc(-n2cnc3ccccc32)cc1
1: SARS-CoV-2 5'-UTR RNA
not listed: SARS-CoV-2 5_SL5 RNA
0: all other assays above

CC(=O)c1ccc(OC(F)F)cc1
not listed: SARS-CoV-2 5_SL5stem RNA
0: all other assays above

CC(C)NCc1ccc(N(C)C)cc1
not listed: SARS-CoV-2 5_SL5stem RNA
0: all other assays above

CC(=O)Nc1cc(C)n[nH]1
not listed: SARS-CoV-2 5_SL5b+c RNA
0: all other assays above

CCOC(=O)c1sc(N(C)C(C)=O)nc1C
not listed: SARS-CoV-2 5_SL5stem RNA
0: all other assays above

CC(=O)Nc1ccc(NC(=O)C2CC2(C)C)cc1 (stereo unspecified)
not listed: SARS-CoV-2 5_SL5 RNA
0: all other assays above

CCc1csc(-c2c[nH]cn2)n1
0: all assays above

Cn1cc(C(N)=O)c(C(F)F)n1
not listed: SARS-CoV-2 5_SL5b+c RNA
0: all other assays above

Cc1ccc(N2CCN(C(N)=O)CC2)cc1
not listed: SARS-CoV-2 5_SL4 RNA | SARS-CoV-2 5_SL5stem RNA
0: all other assays above

c1ccc(CNC2CCNC2)cc1 (stereo unspecified)
not listed: SARS-CoV-2 5_SL5b+c RNA
0: all other assays above

CC(CO)(CO)NC(=O)Nc1ccccc1
not listed: SARS-CoV-2 5_SL5a RNA | SARS-CoV-2 5_SL6 RNA
0: all other assays above

CC(C)NC(=O)c1cc[nH]n1
0: all assays above

Cc1ccc(OCC(=O)Nc2cc(C)on2)cc1
not listed: SARS-CoV-2 5_SL5stem RNA
0: all other assays above

CC(C)C(=O)NCc1nc2ccccc2[nH]1
not listed: SARS-CoV-2 5_SL5a RNA | SARS-CoV-2 5_SL6 RNA
0: all other assays above

CNC(=O)Nc1nc2ccc(OC)cc2s1
1: SARS-CoV-2 5_SL1 RNA | SARS-CoV-2 5_SL1234 RNA | SARS-CoV-2 5_SL4 RNA
not listed: SARS-CoV-2 5_SL5 RNA | SARS-CoV-2 5_SL5b+c RNA
0: all other assays above

CS(=O)(=O)c1nccn1Cc1cscn1
not listed: SARS-CoV-2 5_SL5stem RNA
0: all other assays above

CCc1noc(C)c1C(=O)Nc1cc(C)on1
not listed: SARS-CoV-2 5_SL5a RNA
0: all other assays above

Cc1cccc(CN2CCOCC2)c1
not listed: SARS-CoV-2 5_SL5b+c RNA
0: all other assays above

O=C(Nc1ccc(-n2cnnn2)cc1)C1CCC1
not listed: SARS-CoV-2 5_SL5stem RNA
0: all other assays above

NCc1ccc(-c2cccs2)cc1
not listed: SARS-CoV-2 5_SL4 RNA
0: all other assays above

CCc1ccccc1NC(=O)c1snnc1C
0: all assays above

Cc1ccccc1OCC(=O)Nc1ncccn1
1: SARS-CoV-2 5'-UTR RNA
not listed: SARS-CoV-2 5_SL5 RNA
0: all other assays above

CN1CCN(c2ccc(C#N)cc2)CC1
not listed: SARS-CoV-2 5_SL5 RNA | SARS-CoV-2 5_SL6 RNA
0: all other assays above

Cc1cc(CN(C)C(=O)NC2CC2)no1
not listed: SARS-CoV-2 5_SL5 RNA
0: all other assays above

COCC(=O)Nc1nc(-c2ccccc2)cs1
not listed: SARS-CoV-2 5_SL4 RNA
0: all other assays above

Cc1cc(N2CCNCC2)nc(C)n1
1: SARS-CoV-2 5'-UTR RNA
not listed: SARS-CoV-2 5_SL5 RNA | SARS-CoV-2 5_SL5b+c RNA
0: all other assays above

COc1ccc2[nH]cc(CN(C)C)c2c1
0: SARS-CoV-2 5_SL1 RNA | SARS-CoV-2 5_SL2+3 RNA | SARS-CoV-2 5_SL5b+c RNA
1: SARS-CoV-2 5'-UTR RNA

c1ccc(NCC2CCNC2)nc1 (stereo unspecified)
1: SARS-CoV-2 5'-UTR RNA | SARS-CoV-2 5_SL5b+c RNA

O=C(Nc1ccon1)c1cccc(Cl)c1
1: SARS-CoV-2 5'-UTR RNA | SARS-CoV-2 5_SL5 RNA | SARS-CoV-2 5_SL5stem RNA
0: SARS-CoV-2 5_SL1 RNA | SARS-CoV-2 5_SL2+3 RNA | SARS-CoV-2 5_SL5b+c RNA

CC(Oc1ccc(-c2ccccc2)cc1)C(=O)O (stereo unspecified)
0: SARS-CoV-2 5'-UTR RNA | SARS-CoV-2 5_SL1 RNA | SARS-CoV-2 5_SL2+3 RNA | SARS-CoV-2 5_SL5b+c RNA

CC(=O)c1ccc(NC(=O)CN2CCCC2)cc1
1: SARS-CoV-2 5'-UTR RNA | SARS-CoV-2 5_SL1 RNA | SARS-CoV-2 5_SL5 RNA
0: SARS-CoV-2 5_SL2+3 RNA | SARS-CoV-2 5_SL5b+c RNA

CNCc1cnn(-c2ccccc2)c1
1: SARS-CoV-2 5'-UTR RNA | SARS-CoV-2 5_SL5b+c RNA
0: SARS-CoV-2 5_SL1 RNA | SARS-CoV-2 5_SL2+3 RNA

COc1ccc(NC(=O)Nc2cccs2)cn1
not listed: SARS-CoV-2 5_SL1 RNA | SARS-CoV-2 5_SL5b+c RNA
0: all other assays above

COc1ccc(Nc2ncnc3[nH]cnc23)cc1
1: SARS-CoV-2 5'-UTR RNA | SARS-CoV-2 5_SL5 RNA
0: SARS-CoV-2 5_SL1 RNA | SARS-CoV-2 5_SL2+3 RNA | SARS-CoV-2 5_SL5b+c RNA

Cc1cccc(NC(=O)Nc2nc(C)cs2)c1
0: SARS-CoV-2 5_SL1 RNA | SARS-CoV-2 5_SL2+3 RNA | SARS-CoV-2 5_SL5a RNA | SARS-CoV-2 5_SL5b+c RNA
1: SARS-CoV-2 5_SL1234 RNA | SARS-CoV-2 5_SL4 RNA | SARS-CoV-2 5_SL5 RNA | SARS-CoV-2 5_SL5stem RNA

CCOc1ccc(C(=O)Nc2ccccc2)cc1
0: SARS-CoV-2 5'-UTR RNA | SARS-CoV-2 5_SL1 RNA | SARS-CoV-2 5_SL2+3 RNA | SARS-CoV-2 5_SL5b+c RNA

CCOC(=O)c1cn[nH]c1
not listed: SARS-CoV-2 5_SL1 RNA | SARS-CoV-2 5_SL5b+c RNA
0: all other assays above

CN(C)C(=O)OCCn1ccnc1
not listed: SARS-CoV-2 5_SL1 RNA | SARS-CoV-2 5_SL4 RNA
0: all other assays above

O=C(Nc1ccc(O)cc1)c1ccc(Cl)cc1
1: SARS-CoV-2 5'-UTR RNA
0: SARS-CoV-2 5_SL1 RNA | SARS-CoV-2 5_SL2+3 RNA | SARS-CoV-2 5_SL5b+c RNA

CCc1nc(-c2ccc(Cl)cc2)no1
not listed: SARS-CoV-2 5_SL1 RNA
0: all other assays above

O=C(Nc1cccnc1)c1cnn2cccnc12
1: SARS-CoV-2 5'-UTR RNA | SARS-CoV-2 5_SL5 RNA
not listed: SARS-CoV-2 5_SL1 RNA | SARS-CoV-2 5_SL5b+c RNA
0: all other assays above

NC(=O)CN1CCN(C(=O)c2ccco2)CC1
not listed: SARS-CoV-2 5'-UTR RNA
0: all other assays above

— the supplement of paper PMC8426693
